According to article PMC11290353:
These are yes or no findings as the source states them, for the method shown. In cells and extracts the contact can be indirect. A result given as binding can be weak or reduced; the word gives no strength. Tags and fused reporters may be left off the sequences shown.

Target: GFP-CMTR1ΔWW (human)
Assay: co-IP; GFP-CMTR1 proteins co-expressed with HA-CMTR1-WW or HA-CMTR1-GT-WW, immunoprecipitated using GFP nanobodies; HA-tagged proteins and RNA Pol II S5P detected by western blot

B1: HA-CMTR1-WW (domain or fragment, UniProt Q8N1G2 752-786)
chain: RTVNEPWTMGFSKSFKKKFFYNKKTKDSTFDLPAD
- binding: binds
